Assay results as given in publication PMC10384339.
No constants are given. Whether binding was seen depends on the method and setting. In cells and extracts the contact can be indirect. A yes stands for co-enrichment or nearness to the bait. Other partners may have been found. Where a sequence is shown, tags or fusion partners need not be part of it. Each block holds one binder with its values, some of them ahead of it.

How the values were obtained:
[1] = molecular target: T1, GFP-tagged PBL6 (Arabidopsis thaliana) (UniProt Q9SIB6); assay: affinity purification with mass spectrometry; IP-MS of GFP-tagged PBL6 transgenic plants; co-purified proteins identified by mass spectrometry
T1 sequence: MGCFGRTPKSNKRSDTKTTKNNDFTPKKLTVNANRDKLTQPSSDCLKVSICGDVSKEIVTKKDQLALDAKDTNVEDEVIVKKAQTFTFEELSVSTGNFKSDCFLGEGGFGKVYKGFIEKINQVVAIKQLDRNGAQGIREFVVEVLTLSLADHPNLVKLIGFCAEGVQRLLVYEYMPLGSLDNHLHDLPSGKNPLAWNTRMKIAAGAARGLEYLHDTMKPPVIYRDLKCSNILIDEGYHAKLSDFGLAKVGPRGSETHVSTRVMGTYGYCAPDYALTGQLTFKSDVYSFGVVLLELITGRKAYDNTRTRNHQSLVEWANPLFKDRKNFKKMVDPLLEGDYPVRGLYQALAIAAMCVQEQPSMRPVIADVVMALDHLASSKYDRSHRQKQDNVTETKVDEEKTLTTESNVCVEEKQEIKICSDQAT

[2] = molecular target: T2, GST-MBD3 fusion protein (Arabidopsis thaliana) (UniProt Q4PSK1); assay: affinity purification with mass spectrometry; purified GST-MBD3 added to lysate of 2.5 g WT seedlings (50 mM Tris-HCl pH 8.0, 230 mM NaCl, 5 mM MgCl2, 10% glycerin, 0.2% NP-40), 4 °C, captured on GST beads; bound proteins identified by mass spectrometry; only the target purified
T2 sequence: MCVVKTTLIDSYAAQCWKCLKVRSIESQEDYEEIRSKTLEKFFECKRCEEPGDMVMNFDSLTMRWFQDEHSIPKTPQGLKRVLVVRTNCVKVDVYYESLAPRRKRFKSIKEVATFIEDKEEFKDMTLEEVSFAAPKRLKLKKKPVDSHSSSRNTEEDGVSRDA

B2: MBD3 (Methyl-CPG-binding domain 3), co-purified from plants (protein, UniProt Q4PSK1 1-163)
chain: T2 sequence
binding [1]: binds

B3: CCT2 (TCP-1/cpn60 chaperonin family protein), co-purified from plants (protein, UniProt Q940P8 1-527)
chain: MPIDKIFKDDASEEKGERARMASFVGAMAISDLVKSTLGPKGMDKILQSTGRGHAVTVTNDGATILKSLHIDNPAAKVLVDISKVQDDEVGDGTTSVVVLAGELLREAEKLVASKIHPMTIIAGYRMASECARNALLKRVIDNKDNAEKFRSDLLKIAMTTLCSKILSQDKEHFAEMAVDAVFRLKGSTNLEAIQIIKKPGGSLKDSFLDEGFILDKKIGIGQPKRIENANILVANTAMDTDKVKIYGARVRVDSMTKVAEIEGAEKEKMKDKVKKIIGHGINCFVNRQLIYNFPEELFADAGILAIEHADFEGIERLGLVTGGEIASTFDNPESVKLGHCKLIEEIMIGEDKLIHFSGCEMGQACSIVLRGASHHVLDEAERSLHDALCVLSQTVNDTRVLLGGGWPEMVMAKEVDELARKTAGKKSHAIEAFSRALVAIPTTIADNAGLDSAELVAQLRAEHHTEGCNAGIDVITGAVGDMEERGIYEAFKVKQAVLLSATEASEMILRVDEIITCAPRRREDRM
binding [1]: binds

Second part, the binder after the results:

binding [1]: binds | binding [2]: binds
B1: MBD6 (Methyl-CPG-binding domain 6) (protein, UniProt Q9LTJ1 1-225)
chain: MSDSVAGDFPPDPLLASGAFISSAGDGTLDSSAKRRPIQGGIGISGSGESVRIGMANGTDQVNHQTESKSRKRAAPGDNWLPPGWRVEDKIRTSGATAGSVDKYYYEPNTGRKFRSRTEVLYYLEHGTSKRGTKKAENTYFNPDHFEGQGSNRVTRTATVPPPPPPPLDFDFKNPPDKVSWSMANAGEEGWIPNIGDVKVQDSVRRDWSTAFTFITSRNPSKVSA

binding [1]: binds | binding [2]: binds
B4: MBD5 (Methyl-CPG-binding domain 5) (protein, UniProt Q9SNC0 1-182)
chain: MSNGTDQAQPPPENPATPVDSKSRKRATPGDDNWLPPDWRTEIRVRTSGTKAGTVDKFYYEPITGRKFRSKNEVLYYLEHGTPKKKSVKTAENGDSHSEHSEGRGSARRQTKSNKKVTEPPPKPLNFDFLNVPEKVTWTGINGSEEAWLPFIGDYKIQESVSQDWDRVFTLVTSQNAGKTMF
